Earlier results in patent publication US20130199313A1, “METHOD FOR EVALUATING THE SOLUBILITY OF A CRYSTALLINE SUBSTANCE IN A POLYMER” (Abbott GmbH & Co, KGW, priority 2010, published 2013).
At least one compound was matched to its structure with a doubt left.

Details: polymer PVP K-12; cited from earlier work

## COC(=O)C1=C(C)NC(C)=C(C(=O)OC)C1c1ccccc1[N+](=O)[O-] [NIF, nifedipine]
  solute-solvent interaction parameter χ as determined by Marsac et al.: 0.0
